# Some of the results follow. The main result of the screen is listed elsewhere. These columns were measured beside it and carry no call. Most of these compounds were active or inconclusive in the main read-out, so they are no random draw. Words in brackets tell the shape of the fitted curve; partial curves, single points and poor fits give uncertain potencies.
# Experiment: qHTS Assay to Find Inhibitors of Chronic Active B-Cell Receptor Signaling
# Settings: ABC-DLBCL IkBa-CBG/CBR reporter, luminescence ratio (green luciferase fused to IkBa over red control in TMD8 lymphoma cells), 4 h
# Outline: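 Doxycycline induced both beetle luciferases in TMD8 lymphoma cells; IKK-driven degradation limits the IkappaBalpha-fused green signal, while red luminescence normalises for cell number and nonspecific effects. Compounds tested up to 46 uM, 4 hrs.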
# [1] = measured here: CBR red luminescence, cell number
# [2] = measured here: IkBa-CBG green luminescence
Structure (SMILES),AC50 [1],AC50 [2]
Cc1ccc(C(=O)N(C)CCOc2ccccc2)cc1S(=O)(=O)N1CCOCC1,"7.31 µM [rising, partial curve]","13 µM [falling, partial curve, poor fit]"
Cc1ccc2c(c1)Oc1ccc(NC(=O)CCCl)cc1C(=O)N2,"12.6 µM [rising, single point]","25.1 µM [falling, single point]"
COC(=O)c1ccc(NC(=O)C2CCCN(S(C)(=O)=O)C2)cc1 (centres undefined),"0.0891 µM [falling, full curve, poor fit]",
CCCc1ccc2oc(C(=O)N3CCC(COC)C3)c(C)c2c1 (centres undefined),"7.94 µM [rising, partial curve, poor fit]",
CSC1=NSC2=NC(=O)/C(=C/c3coc4ccc(O)cc4c3=O)C(=N)N12,"0.326 µM [rising, full curve, poor fit]",
O=C1NCCCC1C(=O)N/N=C/c1ccccc1 (centres undefined),"18.4 µM [rising, partial curve, poor fit]",
N/C(=N\OC(=O)c1ccc(Cl)c(Cl)c1)c1cccc(CSc2ccccn2)c1,"17.8 µM [rising, partial curve, poor fit]",
COc1ccc(Oc2nc(-c3cccnc3)nc3ccccc23)cc1,"35.5 µM [rising, single point]","17.8 µM [falling, partial curve, poor fit]"
CCNc1nc(ON=C(C)C)nc(N(C)C)n1,"29.1 µM [rising, single point]",
O=C(N/N=C/c1cccs1)c1cccc(S(=O)(=O)Nc2ccc(Cl)cc2)c1,"35.5 µM [rising, single point]",
CC(=O)c1ccc(NC2OC(CO)C(O)C(O)C2O)cc1 (centres undefined),"35.5 µM [falling, single point]",
CCCOc1cccc(-c2nc3ccccc3c(=O)o2)c1,"10 µM [falling, partial curve]",
CCCOC(=O)c1ccc(NS(=O)(=O)c2cccs2)cc1,"2 µM [falling, partial curve, poor fit]",
O=C(NNc1cccc(Cl)c1)c1cccnc1Oc1ccccc1,"1.26 µM [rising, partial curve]",
CCOC(=O)c1cnc2nc(COc3ccccc3)[nH]n2c1=O,"0.184 µM [falling, full curve, poor fit]",
COc1cc(C(=O)O/N=C2\C=CC(=O)C(C)=C2)cc(OC)c1OC,"3.55 µM [falling, partial curve]",

# Record cards, as listed above.
# CCOC(=O)c1cnc2nc(COc3ccccc3)[nH]n2c1=O in the list: AC50 [1]: 0.184 µM [falling, full curve, poor fit]
# COc1ccc(Oc2nc(-c3cccnc3)nc3ccccc23)cc1 in the list: AC50 [1]: 35.5 µM [rising, single point]; AC50 [2]: 17.8 µM [falling, partial curve, poor fit]

# (list continues)

Structure (SMILES),AC50 [1],AC50 [2]
O=C(NN=C1C2CC3CC(C2)CC1C3)c1ccncc1,"35.5 µM [falling, single point]",
COc1ccc(NC(=O)C(C)N2C(=O)c3ccccc3S2(=O)=O)c(OC)c1 (centres undefined),"4.11 µM [falling, single point]",
CC(C)Cc1cc(C(=O)N2CCN(C(c3ccccc3)c3ccccc3)CC2)no1,"35.5 µM [rising, partial curve, poor fit]",
O=C(COc1cccc2ccccc12)NNC(=O)Nc1ccccc1,,"35.5 µM [falling, single point]"
CCOC(=O)N1CCN(C(=O)CCCCCn2c(=S)[nH]c3cc4c(cc3c2=O)OCO4)CC1,"14.1 µM [falling, single point]",
CC(NCCCOc1cccc2ccccc12)c1ccccc1 (centres undefined),"10 µM [falling, partial curve, poor fit]",
COc1ccc(-c2nc(C(F)(F)F)c(OC)o2)cc1OC,"9.2 µM [rising, partial curve, poor fit]",
O=C(Nc1ccc(S(=O)(=O)N2CCOCC2)cc1)c1cccc(Br)c1,"11.2 µM [rising, partial curve]",
C/C(=N\NC(=O)c1cccc(Cl)c1)c1cccc(NC(=O)c2ccco2)c1,"29.1 µM [falling, single point]",
O=C(CC1C(=O)NCCN1Cc1ccccc1C(F)(F)F)NCCn1cccn1 (centres undefined),"3.16 µM [rising, partial curve]",
COc1cc(/C=N/NC(=S)NC2CC3C=CC2C3)cc(OC)c1OC (centres undefined),"14.1 µM [falling, single point]",
Cc1cc(SCC(=O)N/N=C/c2ccc(O)cc2O)c(C)cc1Br,"1.03 µM [falling, full curve, poor fit]",
COc1cc(CCC(=O)OCC(=O)NCCc2ccc(S(N)(=O)=O)cc2)cc(OC)c1OC,"9.2 µM [rising, single point]",
COc1cccc(CNC(=O)COC(=O)CN(C)S(=O)(=O)c2ccc(NC(C)=O)cc2)c1,"22.4 µM [rising, single point]",
CC(=O)Nc1ccc(NS(=O)(=O)c2cc3c4c(c2)CC(=O)N4CCC3)cc1,"0.562 µM [rising, full curve, poor fit]",

# Source: PubChem BioAssay AID493014 (National Center for Advancing Translational Sciences (NCATS), 2011)
